Source: article PMC4571102

By UniProt entry, the sequences of proteins in these tests, tags left out.
UniProt P32939: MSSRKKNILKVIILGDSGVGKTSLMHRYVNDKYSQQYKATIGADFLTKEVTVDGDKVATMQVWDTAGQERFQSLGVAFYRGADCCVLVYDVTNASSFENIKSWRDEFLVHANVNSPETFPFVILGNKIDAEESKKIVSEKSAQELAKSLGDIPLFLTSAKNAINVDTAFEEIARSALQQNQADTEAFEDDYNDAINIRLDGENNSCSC

Target: GFP-Ypt7p (Rab7-like Ypt7p tagged with the green fluorescent protein, from the GFP-MYC-YPT7 strain) (S. cerevisiae) (UniProt P32939)
Test: affinity purification with mass spectrometry; proteins of purified lipid droplets (15 ug) extracted in lysis buffer (20 mM HEPES, 150 mM NaCl, 10% glycerol, 1% NP 40), incubated 2 h at 4°C with GFP-trap magnetic particles (GFPm); eluted with glycine pH 2.8, then LDS; bands absent from the controls cut out of the SDS gel and analysed by …

- binding: binds
B1: Gdi1p (protein, UniProt P39958 1-451)
chain: MDQETIDTDYDVIVLGTGITECILSGLLSVDGKKVLHIDKQDHYGGEAASVTLSQLYEKFKQNPISKEERESKFGKDRDWNVDLIPKFLMANGELTNILIHTDVTRYVDFKQVSGSYVFKQGKIYKVPANEIEAISSPLMGIFEKRRMKKFLEWISSYKEDDLSTHQGLDLDKNTMDEVYYKFGLGNSTKEFIGHAMALWTNDDYLQQPARPSFERILLYCQSVARYGKSPYLYPMYGLGELPQGFARLSAIYGGTYMLDTPIDEVLYKKDTGKFEGVKTKLGTFKAPLVIADPTYFPEKCKSTGQRVIRAICILNHPVPNTSNADSLQIIIPQSQLGRKSDIYVAIVSDAHNVCSKGHYLAIISTIIETDKPHIELEPAFKLLGPIEEKFMGIAELFEPREDGSKDNIYLSRSYDASSHFESMTDDVKDIYFRVTGHPLVLKQRQEQEKQ

Results are given in words; binding and its absence hold for the method and conditions named. In cells and extracts the contact can be indirect. A yes stands for co-enrichment or nearness to the bait. Other partners may have been found.
